# Measurements published in PubChem BioAssay AID1508600 (Functional Genomics Laboratory (NCATS/FGL), 2020).
# Among all 53,000 sequences or so, about 3,700 (7%) were called active.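 The calls were made as follows: active = gene knockdowns whose robust z-score for IL-1 alpha signal is at least 2 or at most -2, so actives lie on both sides; inactive = the rest.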 This is one part of the list.
# Assay: Components of the Cytosolic LPS Sensing Pathway: Gene Identification via Genome-wide siRNA Screen;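 also: robust z of the log signal after scaling to non-targeting control siRNA wells of the plate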
# Conditions: RAW264.7 macrophages, IL-1a HTRF, actives lie on both sides, screened at 100 nM (by protocol), cells primed 5 h with Pam3CSK4 first
# How it was run: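 Using IL-1a HTRF as read-out, the screen measured release from RAW264.7 cells after 48h siRNA knockdown (100 nM), 5 h Pam3CSK4 priming and 24 h cytosolic LipidA. Values were expressed relative to negative-control wells as robust z-scores.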
row,Sequence,z-score
1,GCGAGGUAUUUUCUUAGUATT against Yes1,inactive: -0.00878
2,GCCGAUGUAUGGAGUUUUCTT against Mei1,inactive: 1.79
3,CGGAGAGAUGGUGUGAACATT against Ik,inactive: -0.774
4,GGGCUCAUUUUCACUGCUUTT against Atraid,inactive: 0.546
5,GGACGACAGCAAAGGGAAGTT against Tnnc1,inactive: -0.227
6,GGAAUGUACUAGACCCGAGTT against Gstm2,inactive: -0.204
7,CGGCAAAAUUAGCUAUUCATT against Exosc4,inactive: 0.489
8,GGAGCCGAAAAAGAUGACCTT against Slu7,inactive: -0.423
9,GCAAUGUGUGGUAAGUAAATT against Zfp738,inactive: -0.757
10,CCAGCUUCAAGGAACAUGGTT against Fabp12,inactive: -1.93
11,GCUUGAUCAUGCAAUCUAUTT against Naa25,inactive: 0.673
12,GGAAGAAGUGAUAAAGAGATT against Nts,inactive: -0.314
13,GGUGUGGUAUGCUUUCUCCTT against Ddx11,inactive: -0.266
14,GCACUGAAGCCUAGCUGUUTT against BC051142,inactive: 1.41
15,GGGUAAAAAGUUUGACAAGTT against Fam76b,inactive: 0.436
16,CCCAAGAAUUGGAUUCCAGTT against Lta,inactive: -0.528
17,GGUUCUGGAAGUGAAGGUGTT against Prg2,inactive: -0.00973
18,CCUGAUUCUUGUCAAAAACTT against Cdh12,inactive: -0.22
19,GGACUUCUACUCAGAAUUUTT against Nisch,inactive: 0.811
20,CCAUGCGGUUGUUCAAGUATT against Taf7l,inactive: 0.54
21,GGUGAAGCCAGUUCACGAATT against Gm5082,inactive: -0.182
22,GGAAUAUCCUGACUUCUGATT against 4931431C16Rik,inactive: -0.949

# Retrieved one by one from above:
row,Sequence,z-score
22,GGAAUAUCCUGACUUCUGATT against 4931431C16Rik,inactive: -0.949
21,GGUGAAGCCAGUUCACGAATT against Gm5082,inactive: -0.182
9,GCAAUGUGUGGUAAGUAAATT against Zfp738,inactive: -0.757
10,CCAGCUUCAAGGAACAUGGTT against Fabp12,inactive: -1.93
17,GGUUCUGGAAGUGAAGGUGTT against Prg2,inactive: -0.00973

# Following part.

row,Sequence,z-score
1,GGAGUACAUUGUGAAUGUUTT against Tnr,inactive: -1.44
2,GGAUACAAGAAACCUUAAGTT against Os9,inactive: 1.09
3,CCUACGACCUGAAGAUAGCTT against Dscc1,inactive: -0.124
4,CGACCAAAAUCAAAACAGCTT against Defb12,inactive: -0.093
5,GGAACGAAGUCUGAAACACTT against A730018C14Rik,inactive: -1.89
6,GCAUUAGGAAUUCAAUUAGTT against Adamts1,inactive: 0.813
7,GCCAUUAUGCCGACGUGGATT against Slc38a2,inactive: -0.636
8,GGGUCGGGUUUCCUAAAGATT against Heatr5b,inactive: 0.643
9,GGCAUUCUUAUAAAGAAACTT against Ube2q1,inactive: 0.174
10,CGGGUGUUUGAAUGAUUUCTT against Mrps27,inactive: 0.856
11,CCCGAAGUAGUCUUUAUCGTT against Pafah1b3,inactive: -0.629
12,GGAAGUGGCGAGGUUCUAUTT against Folr1,inactive: 0.782
13,GCCCUUCGCUUAGUCAGAATT against Rictor,inactive: 0.186
14,GGGCAUCGUUUUCAUCUCATT against Wdr11,inactive: 1.77
15,GGAGUUUCCUAGUAAGGCCTT against Fam71b,inactive: 0.847
16,GCUAAAGAUUGACAAAGCUTT against Uqcrc2,inactive: -1.36
17,GGUGCCCACUAACUUAGAATT against Tbx21,active: 2.3
18,GGACAAAAUACGUGAUAUUTT against Bco1,inactive: 0.205
19,GGUGAGAAGCCUUAUCAUUTT against Klf2,inactive: -0.882
20,GCAUAUUGCCUACUUCUUCTT against Olfr982,inactive: -1.42
21,GGUGAUACACUGUAAUCUGTT against Msra,inactive: 0.843
22,GAGUUCAAGAAUGCUGUUUTT against Usp43,inactive: -0.463

row,Sequence,z-score
1,GCAGCUAAACACCGAUAUGTT against Eid3,inactive: 0.951
2,GGGCAAAUAGUCAAUGACCTT against Ces1e,inactive: 0.661
3,GCGAUGCUGCGUUCUGUUUTT against H1f10,inactive: -0.0369
4,GGAUCAUGUUAAACAAAGATT against Ccne1,inactive: -0.366
5,GGUCAAAUAUAUGCUUGGGTT against Rcbtb2,inactive: -1.18
6,GGCCCUAGAAAGGACACAGTT against Gm5094,inactive: -1.4
7,CGAUGGACGAGAAAUAUUUTT against 1700030K09Rik,inactive: -1.52
8,GGAUCACUGACUUUGAAUUTT against Mob2,inactive: -0.654
9,GCAGGAUCUGCCUAAGUCGTT against Arl4c,inactive: 0.649
10,GCCUUUCACUAUUGACAACTT against Aurkb,inactive: -1.29
11,CCUUAACCUCCACUUUAUATT against Sdc2,inactive: 0.391
12,CCUUGACUCGUAAAUACUUTT against Ist1,inactive: 0.962
13,GGAUGUUGAAAUCAAUGGUTT against Cyp3a16,inactive: 0.198
14,GGCAAAAUCUCAUCAGUCCTT against Iqcc,inactive: -0.131
15,GGAAGAGAUCAUCCAGCUGTT against Mafg,inactive: 1.73
16,GGAGCCCUUGCUCUUUAACTT against Izumo1r,active: -2.23
17,GGGUAGAAUCCAAGAAGCGTT against Hoxb3,active: -2.08
18,GCUCAUGUUGCACUGGAAATT against Ulbp1,inactive: 1.22
19,GGCUAUACCCUGAAAUAUUTT against Slitrk4,inactive: -0.00892
20,GGACCAAAAACCACUGUUUTT against Olfr355,inactive: -0.7
21,GACAAAAUGGGUUUUACCUTT against Olfr668,inactive: -0.736
22,GCACGCAGAAUUCUUCCGUTT against Large2,inactive: 0.706

row,Sequence,z-score
1,GGACCUUUUAUCUGAAAUGTT against Papln,inactive: 1.54
2,GGGACAUUAAACUAUUUCATT against Chchd3,inactive: -0.515
3,GGCUGAACUGAUCCUGUACTT against Kcnh3,active: -2.22
4,CCUCAAGUACUGUAAUCACTT against Atf2,inactive: -0.287
5,GGUAUUCGUUUCAUCUACATT against Hnrnph1,inactive: 1.35
6,GCCCAUAGUAAAUUUGUUATT against Zcchc12,inactive: -0.159
7,GGAGGACAAUGAGGACGAUTT against Chrac1,active: 2.1
8,GGCUUGAGGCCUUUCUCUATT against Zfpl1,inactive: 1.92
9,GGCAACACGAUGCAGCAGUTT against Fam50a,inactive: -0.36
10,GGUAAAAGCUCAGAUUCACTT against Ncoa4,inactive: 0.241
11,GGACUUGGUGACUUACUUCTT against Smpdl3b,inactive: -1.42
12,CCAUGUCUAUUCAAAAAGCTT against Wdr6,inactive: 0.452
13,CCCGCUACAACAACCUGAUTT against Chrnb4,inactive: -0.95
14,GGGCAACGUAUUCACAUUATT against Manbal,active: 2.86
15,GGUAGAAGUGAAAUAUUCUTT against Ndufaf1,inactive: -0.763
16,GGAGUUGCUGUGUAUGACATT against Hspa1a,inactive: -1.41
17,GCACCAAGCGUGUAAAAACTT against Mterf1a,inactive: 0.926
18,GCAGGGAUCUGCUAAGCUATT against Hey1,inactive: -0.953
19,GGGCCUGUGGAAUUUGUUCTT against Acad11,inactive: 1.6
20,GGCAGAGAUAACCUUUAAATT against Sphk1,inactive: 0.488
21,GGCAAGCUGUAAAAGAUGCTT against Noc3l,active: 3.32
22,GUACAUGCCCUUUGAACAUTT against Clcn1,inactive: -0.826

# Laid out differently: entries from further up
row	Sequence	z-score
18	GCAGGGAUCUGCUAAGCUATT against Hey1	inactive: -0.953
19	GGGCCUGUGGAAUUUGUUCTT against Acad11	inactive: 1.6

# The results go on.

row,Sequence,z-score
1,GGACGAUCGAUCGUUAACUTT against Ier5,inactive: 0.639
2,GGAAACAUCUUGUUGAAGATT against BC106179,inactive: 0.361
3,GGAACAAAUAAAUCAGGGATT against Smc6,inactive: 0.608
4,GGAUCUUUUUGUUUUUCCUTT against Commd8,inactive: 0.752
5,GGCAUGUAGAGGACUAAUGTT against Cldn10,inactive: 0.706
6,GGAAUCAAAUGGCGUAGGUTT against Med13l,inactive: 0.0663
7,GGCAUGAUUGUUUUGAUCCTT against Olfr1500,inactive: -0.26
8,GGACUCAUUGACUUCAUCATT against Atg12,inactive: -1.8
9,CCUACUCAAGUACCCUAAATT against Zfp59,inactive: -0.356
10,CCAGAAACUUAACAACGACTT against Bpgm,inactive: 0.534
11,GCCGUCUACCCUGAUAACATT against Cp,inactive: 0.67
12,GCUGAUGGCGUACAUUGAATT against Fut10,inactive: -1.38
13,GCUUGGUGAGACUUUAACCTT against Nhlh2,inactive: 0.179
14,GGGCCACAGGAUCUCACUUTT against 1700009J07Rik,inactive: -1.88
15,GCUCAAGGCUAAGAUCAUUTT against Ttc41,inactive: -0.949
16,GCUUCAAAACAAACCCUUGTT against Parp11,inactive: -1.58
17,GGAUUUUUACAUUGAGUCUTT against Cdca5,inactive: -1.88
18,UUUGCCGGGUUCCCAAAAGTT against Bud31,inactive: 0.388
19,GGAGCAUCAUUAUUCUGCATT against Gm527,inactive: -0.0903
